In paper PMC4974476, “Structural basis for LIN54 recognition of CHR elements in cell cycle-regulated promoters” one finds binding data, which are given here for 3 substances.

Amino acid sequences for entries named in this document (tags omitted).
UniProt Q6MZP7: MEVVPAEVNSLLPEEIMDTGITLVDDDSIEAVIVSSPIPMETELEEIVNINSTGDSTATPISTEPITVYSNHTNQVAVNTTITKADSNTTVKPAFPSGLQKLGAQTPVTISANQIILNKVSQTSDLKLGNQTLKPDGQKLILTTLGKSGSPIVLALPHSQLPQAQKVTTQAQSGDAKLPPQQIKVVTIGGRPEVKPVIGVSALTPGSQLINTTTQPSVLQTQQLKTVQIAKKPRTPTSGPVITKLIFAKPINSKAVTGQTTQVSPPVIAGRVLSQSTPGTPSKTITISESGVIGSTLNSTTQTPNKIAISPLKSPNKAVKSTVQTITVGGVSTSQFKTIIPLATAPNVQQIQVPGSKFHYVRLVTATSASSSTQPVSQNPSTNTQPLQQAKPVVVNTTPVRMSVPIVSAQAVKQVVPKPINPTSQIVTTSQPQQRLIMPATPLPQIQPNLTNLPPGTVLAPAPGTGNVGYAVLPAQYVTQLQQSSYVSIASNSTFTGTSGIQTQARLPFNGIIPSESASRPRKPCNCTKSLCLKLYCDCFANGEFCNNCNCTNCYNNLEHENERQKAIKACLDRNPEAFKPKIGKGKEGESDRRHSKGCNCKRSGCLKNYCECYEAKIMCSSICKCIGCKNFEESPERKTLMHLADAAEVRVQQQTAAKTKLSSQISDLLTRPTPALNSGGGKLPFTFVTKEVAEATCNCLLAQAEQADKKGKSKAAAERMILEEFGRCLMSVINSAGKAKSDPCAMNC
UniProt P10244: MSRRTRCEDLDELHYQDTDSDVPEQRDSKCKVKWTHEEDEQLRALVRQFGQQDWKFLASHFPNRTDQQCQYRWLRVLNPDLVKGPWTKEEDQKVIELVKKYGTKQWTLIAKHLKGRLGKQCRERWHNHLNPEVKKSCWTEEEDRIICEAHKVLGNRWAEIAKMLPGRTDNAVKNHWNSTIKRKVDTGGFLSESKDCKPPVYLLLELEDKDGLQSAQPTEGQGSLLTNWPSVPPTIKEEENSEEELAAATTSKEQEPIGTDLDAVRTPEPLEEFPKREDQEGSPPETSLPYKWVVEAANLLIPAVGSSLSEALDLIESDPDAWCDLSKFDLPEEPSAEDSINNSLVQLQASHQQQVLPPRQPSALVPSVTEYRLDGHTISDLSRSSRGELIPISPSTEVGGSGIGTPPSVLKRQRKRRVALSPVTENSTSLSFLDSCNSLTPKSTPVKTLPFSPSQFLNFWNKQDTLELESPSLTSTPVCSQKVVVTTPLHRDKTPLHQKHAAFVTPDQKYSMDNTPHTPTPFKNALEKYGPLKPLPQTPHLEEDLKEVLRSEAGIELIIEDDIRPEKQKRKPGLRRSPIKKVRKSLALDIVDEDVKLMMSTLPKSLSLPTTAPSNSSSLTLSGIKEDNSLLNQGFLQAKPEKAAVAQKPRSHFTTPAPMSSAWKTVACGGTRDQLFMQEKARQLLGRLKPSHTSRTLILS
UniProt Q96GY3: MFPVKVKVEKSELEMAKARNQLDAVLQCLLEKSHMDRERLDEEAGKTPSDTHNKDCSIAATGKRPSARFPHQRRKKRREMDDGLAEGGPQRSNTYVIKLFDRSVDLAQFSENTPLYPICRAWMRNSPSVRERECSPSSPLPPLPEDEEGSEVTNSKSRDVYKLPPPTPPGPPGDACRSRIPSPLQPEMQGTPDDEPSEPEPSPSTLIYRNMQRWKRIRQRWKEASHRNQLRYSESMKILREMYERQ
UniProt Q5TKA1: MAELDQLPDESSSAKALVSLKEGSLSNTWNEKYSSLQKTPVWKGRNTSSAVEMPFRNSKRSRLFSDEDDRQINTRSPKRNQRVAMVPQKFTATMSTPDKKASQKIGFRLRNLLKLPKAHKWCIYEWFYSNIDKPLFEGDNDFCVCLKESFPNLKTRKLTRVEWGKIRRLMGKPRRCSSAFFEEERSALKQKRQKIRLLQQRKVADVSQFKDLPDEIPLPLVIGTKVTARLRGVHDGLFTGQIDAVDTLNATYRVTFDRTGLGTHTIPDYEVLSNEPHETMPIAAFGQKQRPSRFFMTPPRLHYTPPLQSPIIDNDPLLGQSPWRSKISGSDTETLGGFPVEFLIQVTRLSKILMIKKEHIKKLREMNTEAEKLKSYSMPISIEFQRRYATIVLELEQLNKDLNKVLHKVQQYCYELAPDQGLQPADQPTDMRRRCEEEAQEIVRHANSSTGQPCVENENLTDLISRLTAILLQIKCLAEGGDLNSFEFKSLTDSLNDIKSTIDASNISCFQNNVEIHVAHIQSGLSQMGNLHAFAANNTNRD

The assay addresses V5-tagged wild-type LIN54 (human) (UniProt Q6MZP7). The experiment in a line: co-IP; T98G cells co-transfected with V5-LIN54 (wild type or mutant) and HA-p130; extracts in EBC lysis buffer (50 mM Tris HCl pH 7.4, 150 mM NaCl, 0.5% NP-40); immunoprecipitated with anti-V5 antibody; western blot for LIN9, LIN37, Myb, V5 and HA.

These are yes or no findings as the source states them, for the method shown. In cells and extracts the contact can be indirect. Some results given as binding are weak or reduced against the parent protein; the word gives no strength.

Consider “B-Myb (Myb) transcription factor (from UniProt P10244 1-700)”, for which the binding entry is on record as “binds”. Regarding LIN37 (from UniProt Q96GY3 1-246), the binding result was “binds”. To LIN9 (from UniProt Q5TKA1 1-542) belongs “binds”.
